No constants are given. Whether binding was seen depends on the method and setting. For some assays here: Binding seen in cells or lysates may run through a third protein. Some entries that bind do so weakly or less than the wild type. For some assays here: Sequences can lack the tags named with a protein.
Experiments:
[1] = biological target: T1, FLAG-ZNF121 (pCI-FLAG-ZNF121) (human) (UniProt P58317); experiment: co-IP; transfected 293T cells lysed 24 h later (150 mM NaCl, 50 mM Tris/HCl pH 7.4, 1% NP-40, 10% glycerin, 1 mM EDTA); overnight with anti-FLAG M2 affinity gel, anti-c-Myc magnetic beads or agarose-conjugated anti-GFP; western blot
T1 sequence: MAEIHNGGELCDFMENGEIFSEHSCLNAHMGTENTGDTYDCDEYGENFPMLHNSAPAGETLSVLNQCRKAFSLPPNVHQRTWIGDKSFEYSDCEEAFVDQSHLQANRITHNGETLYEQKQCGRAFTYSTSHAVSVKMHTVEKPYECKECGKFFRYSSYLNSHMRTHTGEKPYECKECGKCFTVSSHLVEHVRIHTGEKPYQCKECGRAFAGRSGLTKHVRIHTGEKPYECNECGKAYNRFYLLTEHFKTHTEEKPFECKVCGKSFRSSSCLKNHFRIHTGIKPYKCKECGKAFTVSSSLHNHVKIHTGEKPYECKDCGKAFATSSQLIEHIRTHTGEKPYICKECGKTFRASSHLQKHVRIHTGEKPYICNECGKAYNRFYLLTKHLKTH

The chains behind the UniProt entries cited, without tags or fusion partners.
UniProt Q9GZX5: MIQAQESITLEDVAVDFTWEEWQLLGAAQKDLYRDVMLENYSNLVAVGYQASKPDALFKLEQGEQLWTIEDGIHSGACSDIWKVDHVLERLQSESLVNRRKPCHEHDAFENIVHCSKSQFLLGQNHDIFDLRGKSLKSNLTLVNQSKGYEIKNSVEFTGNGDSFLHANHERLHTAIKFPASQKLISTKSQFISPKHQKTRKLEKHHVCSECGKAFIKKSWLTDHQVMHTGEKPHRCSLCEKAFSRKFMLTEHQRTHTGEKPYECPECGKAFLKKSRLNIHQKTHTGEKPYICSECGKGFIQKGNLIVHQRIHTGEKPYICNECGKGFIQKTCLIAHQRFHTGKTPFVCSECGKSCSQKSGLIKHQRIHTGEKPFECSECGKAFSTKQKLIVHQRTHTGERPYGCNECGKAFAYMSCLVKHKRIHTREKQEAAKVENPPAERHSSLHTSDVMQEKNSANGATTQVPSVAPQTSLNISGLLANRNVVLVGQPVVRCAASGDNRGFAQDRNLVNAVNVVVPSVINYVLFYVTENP

[2] = biological target: T2, ZNF121 (pGBKT7-ZNF121), zinc finger protein 121 (human) (UniProt P58317); experiment: two-hybrid; cotransformation of Y2HGold yeast cells with pGBKT7 and pGADT7 plasmids; QDO/X/A plates, 30 °C, 4 days
T2 sequence: T1 sequence

binding [1]	binding [2]	Substance
binds		Myc-ZBRK1 (pCI-Myc-ZBRK1) (from UniProt Q9GZX5 1-532)
	binds	ZBRK1 (pGADT7-ZBRK1), zinc finger and BRCA1-interacting protein with a KRAB domain 1 (from UniProt Q9GZX5 1-532)

Reference: paper PMC6275281
